Assay results taken from US9631096B2, “Dye compositions, methods of preparation, conjugates thereof, and methods of use” (CORNELL UNIVERSITY, priority 2012, dated 2017).
Some results were stated once for a whole list of compounds, not compound by compound.

Test: Laser flash photolysis (time-resolved transient absorption) of Cy5 derivatives with benzophenone sensitizer
Format: physicochemical
Conditions: deoxygenated acetonitrile, BP sensitizer, 355 nm pulse, triplet absorption at 700 nm

## CCN1/C(=C/C=C/C=C/C2=[N+](CCCCCC(=O)O)c3ccc(S(=O)(=O)O)cc3C2(C)C)C(C)(C)c2cc(S(=O)(=O)[O-])ccc21 [Cy5]
  τtriplet (triplet lifetime): 60-63 μs
